Measurements reported in PubChem BioAssay AID1259314 (Drosophila RNAi Screening Center, 2017).

Purpose: 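Genes whose knock-down alters cell survival under toxic manganese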 (primary screen)
Cell system: Drosophila S2R+ cells
Reagents: long dsRNA against Drosophila genes
Duration: 5 days (4 days knock-down, then 1 day metal exposure)
Challenge: manganese chloride added to 15 mM for 24 hours
Read-out: 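Luciferase ATP signal used as a proxy for viable cell number, reported as one averaged z-score per dsRNA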
Reading the numbers: mean ATP z-score: higher = more ATP than the plate average, more viable cells under manganese
Hit rule: 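Called active when the mean ATP z-score is above 1.5 or below -1.5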
Calls: active = strong ATP change, up or down; inactive = no strong ATP change
Here is one part, drawn at random, of about 3,100 reagents tested. Of all reagents, 289 (9.3%) are marked active. 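Active includes both higher and lower ATP than plate average; check the z-score sign for direction.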 The record does not give: the amount of reagent.

rho (GeneID 38168) [DRSC08734] | mean ATP z-score: 1.28; outcome: inactive
rho (GeneID 38168) [DRSC39615] | mean ATP z-score: 0.354; outcome: inactive
Vha100-5 (GeneID 34587) [DRSC02175] | mean ATP z-score: -0.184; outcome: inactive
Vha100-5 (GeneID 34587) [DRSC26439] | mean ATP z-score: 0.44; outcome: inactive
Dh44-R2 (GeneID 36368) [DRSC06141] | mean ATP z-score: 0.977; outcome: inactive
moody (GeneID 31168) [DRSC18515] | mean ATP z-score: 0.238; outcome: inactive
NijA (GeneID 39215) [DRSC10637] | mean ATP z-score: 1.76; outcome: active
COX7AL (GeneID 40995) [DRSC25198] | mean ATP z-score: -0.311; outcome: inactive

Copied from above, 2 entries:
moody (GeneID 31168) [DRSC18515] | mean ATP z-score: 0.238; outcome: inactive
NijA (GeneID 39215) [DRSC10637] | mean ATP z-score: 1.76; outcome: active

Additional reagents follow:
Gr23a (GeneID 33453) [DRSC00410] | mean ATP z-score: -0.852; outcome: inactive
Gr23a (GeneID 33453) [DRSC27488] | mean ATP z-score: 0.617; outcome: inactive
app (GeneID 39399) [DRSC09159] | mean ATP z-score: -0.672; outcome: inactive
app (GeneID 39399) [DRSC25682] | mean ATP z-score: 1.12; outcome: inactive
Cftr (GeneID 42928) [DRSC15872] | mean ATP z-score: -1.57; outcome: active
Cftr (GeneID 42928) [DRSC24655] | mean ATP z-score: 0.0456; outcome: inactive
Ir7c (GeneID 31692) [DRSC18007] | mean ATP z-score: -0.509; outcome: inactive
Ir7c (GeneID 31692) [DRSC39710] | mean ATP z-score: 0.344; outcome: inactive
CG32579 (GeneID 318096) [DRSC19872] | mean ATP z-score: -0.283; outcome: inactive
CG32579 (GeneID 318096) [DRSC39617] | mean ATP z-score: 0.947; outcome: inactive
PIG-C (GeneID 38410) [DRSC08241] | mean ATP z-score: -0.00968; outcome: inactive
